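Each compound is printed as two spots on a slide made to bind it covalently, so it has no test concentration; the read-out is fluorescence of the bound, labelled oligonucleotide. For the PreQ1, TPP and SAM-II riboswitches the laboratory earlier reported (doi:10.1038/s41467-019-09493-3) 1 µM RNA, 2 h, and a rule that included a mean Z-score above 3 (spot signal-to-noise against the whole library), a score well above that on a control array, and duplicate spots agreeing (coefficient of variation under 100). The data file gives only the calls; its cut-offs may differ, and compounds hitting several targets are kept. These are primary screening calls, not affinities; a compound without a hit may have attached poorly or may still bind in solution.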
Key: hit = hit, no hit = tested without a hit.
The compounds are a random part of those screened.
A target missing from an entry has no call listed here.
A dash means that no call is listed here.

Oligonucleotides screened, 5′ to 3′:
SAM-II: SAM-II riboswitch RNA pseudoknot, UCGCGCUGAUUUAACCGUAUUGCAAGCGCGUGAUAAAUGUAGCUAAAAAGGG. About 200 hits among about 21,000 compounds.
PreQ1: PreQ1 riboswitch RNA pseudoknot, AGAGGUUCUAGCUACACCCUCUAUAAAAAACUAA. From B. subtilis. About 170 hits among about 24,000 compounds.
TPP: TPP riboswitch RNA three-way junction, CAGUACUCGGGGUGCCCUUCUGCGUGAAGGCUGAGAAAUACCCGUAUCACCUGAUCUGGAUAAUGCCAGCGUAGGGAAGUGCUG. About 160 hits among about 24,000 compounds.

| structure | SAM-II | PreQ1 | TPP |
|---|---|---|---|
| `Nc1ncc(S(=O)(=O)O)s1` | no hit | no hit | no hit |
| `Nc1nc2[nH]n(-c3ccccc3)nc-2c(=O)n1` | no hit | no hit | no hit |
| `CCN1CCN(CCCNC2=NS(=O)(=O)C(c3ccc(OC)cc3)=C2C)CC1` | - | no hit | no hit |
| `Cc1nn(C(=O)c2cccc(Cl)c2)c(N)c1-c1ccccc1` | no hit | no hit | no hit |
| `CC(O)CNCCNc1ccc(Cl)cc1[N+](=O)[O-]` (stereo unspecified) | no hit | no hit | no hit |
| `Nc1c(-c2nc(-c3ccc(F)cc3)no2)nnn1-c1ccc(F)cc1F` | - | no hit | no hit |
| `Cc1ccc(S(=O)(=O)Nc2nc3ccccc3nc2Nc2ccccc2)cc1` | no hit | no hit | no hit |
| `O=C(O)c1ccc(OCC(O)Cn2cnc3ccccc32)cc1` (stereo unspecified) | no hit | no hit | no hit |
| `Cc1ccc2c(c1)c1c(n2CC(O)CNC(C)(C)C)CCCC1` (stereo unspecified) | no hit | no hit | no hit |
| `C=CCN(Cc1ccccn1)C(=O)C1CNCCO1` (stereo unspecified) | no hit | no hit | no hit |
| `Cc1cccc(C2Nc3ccccc3C(=O)N2CCc2ccccc2)n1` (stereo unspecified) | no hit | no hit | no hit |
| `Cc1cc(C)c(OCC(O)CNC(C)(C)C)c(C)c1` (stereo unspecified) | no hit | no hit | no hit |
| `NC1=C(C(=O)OCc2ccccc2)C2(C(=O)Nc3ccccc32)C2=C(CCCC2=O)O1` (stereo unspecified) | no hit | no hit | no hit |
| `Cc1ccc(N2CCC(N[C@@H]3CC[C@@H](N)C3)CC2)cc1Cl` | hit | no hit | hit |
| `COc1ccc(N2C(=O)CC(NCc3ccc(S(N)(=O)=O)cc3)C2=O)cc1` (stereo unspecified) | no hit | no hit | no hit |
| `CCNc1nc2c(c(=O)n(C)c(=O)n2C)n1CC(O)COc1ccccc1` (stereo unspecified) | no hit | no hit | no hit |
| `Cn1c(CNc2ccc(Cl)cc2)nc2ccccc21` | no hit | no hit | no hit |
| `CC1(C)Cc2cccc(OCc3nc(N)nc(Nc4ccccc4)n3)c2O1` | no hit | no hit | no hit |
| `CCN1C(=O)C2(C(C#N)=C(N)Oc3[nH]nc(-c4ccc(F)cc4)c32)c2ccccc21` (stereo unspecified) | no hit | no hit | no hit |
| `CC(C)NC(=O)[C@@H]1C[C@@H](N)CN1C(=O)c1ccc2c(c1)nnn2C` | no hit | no hit | no hit |
| `COCCN(C)C[C@H]1C[C@H](CO)CN(Cc2ccc3ncccc3c2)C1` | no hit | no hit | no hit |
| `CNC(=O)c1ccc(CNc2nc(-c3cccnc3)nc3c2CNC3)o1` | no hit | no hit | no hit |
| `O=C1CC(c2cc(F)cc(F)c2)Cc2nc(NCC3CCCO3)ncc21` (stereo unspecified) | - | no hit | no hit |
| `CN(C)c1nc(Cl)nc2c1nc(Cl)n2C1CCCCO1` (stereo unspecified) | no hit | no hit | no hit |
| `Cn1ncnc1[C@H]1c2n[nH]c(=O)c3cc(F)cc(c23)N[C@@H]1c1ccc(F)cc1` | no hit | no hit | no hit |
| `Cc1ccc(OCCN2CC[C@H](CO)[C@@H](O)C2)c(Cl)c1` | no hit | no hit | no hit |
| `COc1ccc2c(CNCc3cccc(Cl)c3)c(C(=O)O)n(C)c2c1` | - | no hit | no hit |
| `CC1CC(C)CN(Cc2nc3c(c(=O)n(C)c(=O)n3C)n2CCCO)C1` (stereo unspecified) | no hit | no hit | no hit |
| `Clc1ccccc1Nc1ncnc2c1nc1n2CCCC1` | - | no hit | no hit |
| `CC1CCN(c2c(NCc3ccc(C(=O)N4CC=C(c5ccccc5)CC4)cc3)c(=O)c2=O)CC1` | - | no hit | no hit |
| `COc1ccc(CCNC2CC(=O)N(CCc3ccccc3)C2=O)cc1OC` (stereo unspecified) | no hit | no hit | no hit |
| `CCOC(=O)N1CCN(Cc2c(O)ccc3ccccc23)CC1` | no hit | no hit | no hit |
| `COc1ccc(CNc2nc3c(C)cc(C)cc3s2)cc1` | no hit | no hit | no hit |
| `O=c1c2cc3c(=O)n(-c4cccc(Cl)c4)ccc3nc2ccn1CCO` | no hit | no hit | no hit |
| `CNC(=O)c1ccc2cc(C3(O)CCn4cncc43)ccc2c1` (stereo unspecified) | no hit | no hit | no hit |
| `CN1C(C(=O)Nc2ccccn2)=C(O)c2sccc2S1(=O)=O` | no hit | no hit | no hit |
| `Cc1ccc(Nc2c(-c3ccco3)nc3ccc(Cl)cn23)cc1` | no hit | no hit | no hit |
| `O=C(c1cccnn1)N1C[C@@H](CN2CCCCCC2)[C@@H](CO)C1` | no hit | no hit | no hit |
| `OCc1nc2ccccc2n1CCCCOc1ccc(Cl)cc1` | no hit | no hit | no hit |
| `C[C@H](NCc1ccc2c(c1)nc(NC(=O)c1ccc(-c3cn[nH]c3)s1)n2CCc1ccccc1)C(C)(C)C` | hit | no hit | hit |
| `N#Cc1nc(-c2ccccc2)oc1NCCCn1ccnc1` | no hit | no hit | no hit |
| `Fc1ccc(CNc2c3c(nc4ccccc24)CCCC3)cc1` | no hit | no hit | no hit |
| `CCCCOc1ccc(C2C(C#N)=C(N)Oc3cc(C)oc(=O)c32)cc1` (stereo unspecified) | no hit | no hit | no hit |
| `Nc1nc(-c2ccccc2)c(-c2ccccc2)s1` | no hit | no hit | no hit |
| `Nc1cccnc1N1CCOCC1` | - | no hit | no hit |
| `COc1ccc(N2C(=O)CC(c3nc4ccccc4s3)=C2N)cc1OC` | no hit | no hit | no hit |
| `O[C@H]1COC[C@@H]1N1CCCN(c2nccc(C3CCCC3)n2)CC1` | no hit | no hit | no hit |
| `COC(=O)c1c[n+]([O-])ccc1OC` | no hit | no hit | no hit |
| `CC(=O)c1ccc(Nc2nc(-c3sc(C)nc3C)cs2)cc1` | no hit | no hit | no hit |
| `CSCC[C@H](N)C(=O)N(Cc1ccncc1)C1CCN(C)CC1` | no hit | no hit | no hit |
| `Nc1ccc(C(=O)N2N=C(C(F)(F)F)CC2(O)c2ccc(Br)cc2)cc1` (stereo unspecified) | no hit | no hit | no hit |
| `CCc1ccc(-n2nc(CO)c(C(=O)NCc3ccccc3Cl)n2)cc1` | - | no hit | no hit |
| `CNC(=O)[C@@H]1C[C@H](N)CN1C(=O)CN(C)Cc1ccncc1` | no hit | no hit | no hit |
| `CCOC(=O)c1cnc2c(C)cc(C)cc2c1NCc1ccco1` | no hit | no hit | no hit |

The last 5 entries again:

* CSCC[C@H](N)C(=O)N(Cc1ccncc1)C1CCN(C)CC1 | SAM-II: no hit; PreQ1: no hit; TPP: no hit
* Nc1ccc(C(=O)N2N=C(C(F)(F)F)CC2(O)c2ccc(Br)cc2)cc1 (stereo unspecified) | SAM-II: no hit; PreQ1: no hit; TPP: no hit
* CCc1ccc(-n2nc(CO)c(C(=O)NCc3ccccc3Cl)n2)cc1 | PreQ1: no hit; TPP: no hit
* CNC(=O)[C@@H]1C[C@H](N)CN1C(=O)CN(C)Cc1ccncc1 | SAM-II: no hit; PreQ1: no hit; TPP: no hit
* CCOC(=O)c1cnc2c(C)cc(C)cc2c1NCc1ccco1 | SAM-II: no hit; PreQ1: no hit; TPP: no hit

Data from the ROBIN nucleic acid binder screens, doi:10.1002/anie.202211358.